Data as given in PubChem BioAssay AID652272 (Drosophila RNAi Screening Center, 2013).
Screen: 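Genome-wide knock-down search for components of Hedgehog signalling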 (primary screen). Cell system: Drosophila clone 8 (Cl8) cells. Knock-down reagent: long dsRNA against Drosophila genes. Detection: 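Plate reader light from a firefly reporter under a ptc promoter fragment that responds to Hedgehog, with Renilla light as transfection reference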. Direction: firefly Hh reporter signal: higher = more ptc reporter light; Renilla reference signal: higher = more Renilla control light. Active means: 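Hit when the z-score averaged over two replicates is under -2 or over +3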. Meaning of the calls: active = hit: reporter lowered or raised; inactive = not a hit.
In all, the deposit lists about 21,000 reagents; shown is a random part of those that have a named target and a result. Over the whole deposit, 503 (2.4%) are marked active. 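Raw plate light values, not normalised; calls rest on replicate z-scores that were not deposited; hits include reporter decreases as well as increases.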 Names joined by + are all predicted targets of the reagent. The record does not give: the amount of reagent, the time to read-out.

target	DRSC id	firefly Hh reporter signal, replicate 1	firefly Hh reporter signal, replicate 2	firefly Hh reporter signal, replicate 3	Renilla reference signal, replicate 1	Renilla reference signal, replicate 2	call
SNCF (SoxNeuro Co-Factor)	DRSC10115	36898	39124	44195	3362	2802	inactive
Sse (Separase)	DRSC09746	61085	52283		2802	2247	inactive
Ptpmeg2 (Protein tyrosine phosphatase Meg2)	DRSC18277	62785	1.74e5		1853	6355	inactive
Ptpmeg2 (Protein tyrosine phosphatase Meg2)	DRSC18278	72643	1.26e5		2055	5293	inactive
pasha (partner of drosha)	DRSC15295	1.11e5	90304		2978	3191	inactive
crp (cropped)	DRSC03515	53987	29616		2149	3571	active
CaMKI (Calcium/calmodulin-dependent protein kinase I)	DRSC17162	1.11e5	83206		2672	2634	inactive
prage	DRSC17957	54784	1.49e5		1147	8548	inactive
prage	DRSC17958	1.17e5	49148		2907	1704	inactive
prage	DRSC18490	85697	1.61e5		3383	6999	inactive
prage	DRSC18497	1.01e5	2.52e5		3147	10272	inactive
CG13016	DRSC06271	1.22e5	39424		2582	153	inactive
CG14110	DRSC10113	41144	54384	62523	5789	4288	inactive
Uba1 (Ubiquitin activating enzyme 1)	DRSC07567	48486	46888		3097	2930	inactive
CG30001	DRSC05191	1.20e5	2.54e5		3110	10848	inactive
rdgC (retinal degeneration C)	DRSC11387	79923	1.45e5		2407	4459	inactive
Spn88Eb (Serpin 88Eb)	DRSC16093	86850	88333		3834	3592	inactive
lncRNA:CR32661 + lncRNA:CR43157	DRSC19794	66402	2.39e5		1480	8453	inactive
pwn (pawn)	DRSC06035	1.28e5	74970		2902	6833	inactive
Cdc14 (Cell division cycle 14)	DRSC03013	84128	40709		2130	5874	inactive
Grl40a (Gustatory receptor-like 40a)	DRSC03677	1.15e5	2.07e5		3400	8819	inactive
Mps1 (Monopolar spindle 1)	DRSC16273	1.02e5	1.18e5		4629	4345	inactive
p47	DRSC06046	1.24e5	93905		5620	2816	inactive
CG11353	DRSC08182	1.29e5	76936		5611	3410	inactive
Pex10 (Peroxin 10)	DRSC08599	1.31e5	7.34e5	1.32e5	5873	43696	inactive
CG12341	DRSC06133	1.18e5	75879		2850	5260	inactive
l(3)73Ah (lethal (3) 73Ah)	DRSC11359	66704			4682	2019	inactive
CG4612	DRSC04478	80487	39829		3019	1601	inactive
RtGEF (Rho-type guanine nucleotide exchange factor)	DRSC03604	90020	45990		2209	4274	inactive
ntc (nutcracker)	DRSC08166	83527	82034		3738	3088	inactive
CG14712	DRSC14935	76329	43616		4016	2503	inactive
CG33093	DRSC15775	4.60e5	89584		3872	3872	inactive
Sidpn (similar to Deadpan)	DRSC02056	1.64e5	93467		6208	4352	inactive
Mst84B (Male-specific transcript 84B)	DRSC12579	1.21e5	1.71e5		5188	5168	inactive
dpr10 (defective proboscis extension response 10)	DRSC09015	99824	1.59e5		3239	8512	inactive
dpr10 (defective proboscis extension response 10)	DRSC09018	1.58e5	2.91e5		4357	13210	inactive
dpr10 (defective proboscis extension response 10)	DRSC10159	46013	86009	55380	7462	3205	inactive
dpr10 (defective proboscis extension response 10)	DRSC10160	63764	58374	66556	5813	3753	inactive
Prosbeta5R2 (Proteasome beta5 subunit-related 2)	DRSC01617	1.16e5	1.91e5		3192	9740	inactive
